Assay results published in article PMC3320604, “A Genome-Wide Screen for Genetic Variants That Modify the Recruitment of REST to Its Target Genes”.

target: T1, HisMBP-REST/DBD (UniProt Q13127); assay: competition EMSA; settings: competition against Cy5 Scn2a2 RE1 probe; 10 mM Tris-HCl pH 8.0, 100 mM KCl, 2 mM 2-mercaptoethanol, ZnCl2 (printed '50 M', unit prefix lost), 10% glycerol, 0.1% NP-40, 0.1 mg/ml BSA; 0.5 nM probe; low values mean tight binding; recombinant protein; protein details: His-MBP; label: unlabelled competitor; letters put together from the description
T1 sequence (looked up, limits assumed): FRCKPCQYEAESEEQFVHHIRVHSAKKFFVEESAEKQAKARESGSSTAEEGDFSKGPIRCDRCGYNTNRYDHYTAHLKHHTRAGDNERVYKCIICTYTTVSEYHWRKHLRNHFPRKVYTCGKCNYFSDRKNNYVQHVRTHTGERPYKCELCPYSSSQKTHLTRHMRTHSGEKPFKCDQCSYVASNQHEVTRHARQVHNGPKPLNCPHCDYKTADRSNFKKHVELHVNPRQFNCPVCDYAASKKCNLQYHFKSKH

Row | Sequence | binding signal (fraction of probe bound)
1 | GGAGCGTTGCTTCAGCACCACGGAGAGATCATGACTGCAG (double strand) [RE1 control N3_MAJ] | 0.531
2 | AAGGCAGGGGTTCAGCACCACGGACAGCGACCTGCGGGTG (double strand) [RE1 control N2_MIN] | 0.148
3 | GAGCGCAGCCGGCAGCACCATGGACAGCGCCGGGTTGGGC (double strand) [RE1 control N1_MIN] | 0.345
4 | GGAGCGTTGCTTCAGCACCACGGAGAGATCATCACTGCAG (double strand) [RE1 control N3_MIN] | 0.512
5 | GAGCGCCGCCGGCAGCACCATGGACAGCGCCGGGTTGGGC (double strand) [RE1 control N1_MAJ] | 0.377
6 | AAGAGCCCGTTTCAGCACCATGGACAAAGCACCCCCCGAC (double strand) [RE1 control N4_MAJ] | 0.495
7 | AAGAGCCCGTTTCAGCACCATGGACAAAGCACCCTCCGAC (double strand) [RE1 control N4_MIN] | 0.463
8 | AAGGCAGGAGTTCAGCACCACGGACAGCGACCTGCGGGTG (double strand) [RE1 control N2_MAJ] | 0.194

The exact form of at least one protein or probe is not confirmed. Tags and fusion partners may be left off the protein sequences shown.
